Measurements reported in PubChem BioAssay AID1259331 (Drosophila RNAi Screening Center, 2017).

Test: 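Fly transmembrane-protein genes that affect zinc toxicity in cultured cells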 (primary screen)
Cells: Drosophila S2R+ cells
Reagent: long dsRNA against Drosophila genes
Time to read-out: 5 days (4 days knock-down, then 1 day zinc)
Conditions: zinc chloride at 15 mM final level for 1 day
Measured: 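Luminescent ATP assay standing in for viability; Z score is the mean over three replicate plates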
Direction: mean Z score: higher = more ATP than other wells, better survival under zinc; ATP luminescence: higher = more ATP, more viable cells
Rule for the call: 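Hit when the absolute Z score is greater than 1.5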
Calls: active = hit, ATP up or down; inactive = not a hit
This is an unselected part of about 3,100 deposited reagents. 126 of them (4.1%) were called active. 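Calls are per reagent; zinc was so toxic that few knock-downs lowered ATP further, so most hits raise ATP.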 Raw values are not corrected between plates. Reagents against one gene are numbered here. Names joined by + are all predicted targets of the reagent. Not stated in the record: the amount of reagent.

gene knocked down	reagent	mean Z score	ATP luminescence, replicate 1	ATP luminescence, replicate 2	Call
CG13409	1	-0.0704	36668	56585	inactive
CG13409	2	0.173	69893	55007	inactive
nAChRalpha2 (nicotinic Acetylcholine Receptor alpha2)	1	0.369	52693	48843	inactive
nAChRalpha2 (nicotinic Acetylcholine Receptor alpha2)	2	0.977	70630	70424	inactive
dmGlut (Dietary and metabolic glutamate transporter)	1	-0.692	44119	48937	inactive
dmGlut (Dietary and metabolic glutamate transporter)	2	-0.648	44163	46782	inactive
alien + CG17906	1	0.465	53762	41102	inactive
alien + CG17906	2	-0.0794	59329	61026	inactive
CG11069	1	-0.25	41702	45834	inactive
CG6230	1	-0.492	49486	49057	inactive
Tsp2A (Tetraspanin 2A)	1	-0.489	53396	62570	inactive
Tsp2A (Tetraspanin 2A)	2	0.172	47960	60049	inactive
crb (crumbs)	1	-0.318	43639	42251	inactive
crb (crumbs)	2	-0.243	46799	43041	inactive
pyx (pyrexia)	1	1.49	57538	61249	inactive
pyx (pyrexia)	2	-0.448	56276	39919	inactive
CG17841	1	-0.754	36165	38902	inactive
CG17841	2	0.0767	62844	62301	inactive
Or88a (Odorant receptor 88a)	1	-0.198	38548	54699	inactive
Or88a (Odorant receptor 88a)	2	-0.225	48999	45097	inactive
Mpv17 (Mitochondrial inner membrane protein MPV17)	1	-0.784	45217	61054	inactive

Sorted by “ATP luminescence, replicate 2” (low to high): 3 of the entries above.
gene knocked down	reagent	mean Z score	ATP luminescence, replicate 1	ATP luminescence, replicate 2	Call
alien + CG17906	1	0.465	53762	41102	inactive
CG11069	1	-0.25	41702	45834	inactive
alien + CG17906	2	-0.0794	59329	61026	inactive

More entries follow:
gene knocked down	reagent	mean Z score	ATP luminescence, replicate 1	ATP luminescence, replicate 2	Call
fz4 (frizzled 4)	1	-0.723	52624	55539	inactive
Nup54 (Nucleoporin 54kD)	1	-0.178	28827	30989	inactive
Ten-m (Tenascin major)	1	0.315	45423	47429	inactive
Ten-m (Tenascin major)	2	0.0443	78949	59706	inactive
Or56a (Odorant receptor 56a)	1	-0.072	68468	70602	inactive
Or56a (Odorant receptor 56a)	2	-0.959	38599	36782	inactive
CG13795	1	-0.384	44788	40039	inactive
CG13795	2	-0.231	50258	61232	inactive
CG31522	1	-0.527	57254	57382	inactive
CG31522	2	-0.138	43091	42902	inactive
CG7084	1	0.64	49795	55110	inactive
CG7084	2	-0.253	49949	55505	inactive
Ten-a (Tenascin accessory)	1	-0.192	37039	44685	inactive
Ten-a (Tenascin accessory)	2	0.134	62621	74043	inactive
CG30048	1	0.528	57305	52572	inactive
CG30048	2	0.199	55659	75656	inactive
CG31221	1	-0.0996	35855	57202	inactive
CG31221	2	-0.49	46955	60838	inactive
mge (maggie)	1	1.6	1.06e5	82588	active
CG14691	1	-0.514	33233	49778	inactive
CG14691	2	0.808	76513	68092	inactive
CarT (Carcinine transporter)	1	-0.212	54091	52298	inactive
CarT (Carcinine transporter)	2	-0.209	44805	64816	inactive
CG42514	1	-0.596	28502	26291	inactive
VhaAC45 (Vacuolar H[+] ATPase AC45 accessory subunit)	1	-0.671	25245	25948	inactive
VhaAC45 (Vacuolar H[+] ATPase AC45 accessory subunit)	2	1.63	81653	77405	active
